Results from US20090054250.

What was measured:
[1] = target: PDGF-BB (platelet-derived growth factor B homodimer) (UniProt P01127); experiment: binding assay; details: n at position 22 is 2-aminopurine replacing C [22 (2-aminopurine replacing C)]; PAGE purified; screening buffer 20 mM Tris pH 7.1, 140 mM NaCl, 5 mM KCl, 10 mM CaCl2, 10 mM MgCl2, 23 C; label: 2-aminopurine; single-stranded DNA; letters built from the parent sequence and the stated change
[2] = test system: alpha-thrombin (Homo sapiens); experiment: binding assay; details: n at position 7 is 2-aminopurine replacing T [7 (2-aminopurine replacing T)]; 2AP fluorescence at saturating protein; label: 2-aminopurine; single-stranded DNA; letters built from the parent sequence and the stated change

Sequence | binding signal (fold fluorescence increase) [1] | binding signal (fold fluorescence increase) [2]
CACAGGCTACGGCACGTAGAGCATCACCATGATCCTGTG [PDGF-B aptamer 2AP-22] | 5.8 | 
GGTTGGTGTGGTTGG [thrombin aptamer 2AP-7] |  | 10

The exact form of at least one protein or probe is not confirmed. The direction of at least one scale is not stated here.
